Assay results as given in US20240209112A1 (GENOME, published 2024).
Results are given in words; binding and its absence hold for the method and conditions named. Some entries that bind do so weakly or less than the wild type.

T1: Human BCAM (amine-coupled to AR2G biosensors) (human) (UniProt P50895)
T1 sequence (looked up): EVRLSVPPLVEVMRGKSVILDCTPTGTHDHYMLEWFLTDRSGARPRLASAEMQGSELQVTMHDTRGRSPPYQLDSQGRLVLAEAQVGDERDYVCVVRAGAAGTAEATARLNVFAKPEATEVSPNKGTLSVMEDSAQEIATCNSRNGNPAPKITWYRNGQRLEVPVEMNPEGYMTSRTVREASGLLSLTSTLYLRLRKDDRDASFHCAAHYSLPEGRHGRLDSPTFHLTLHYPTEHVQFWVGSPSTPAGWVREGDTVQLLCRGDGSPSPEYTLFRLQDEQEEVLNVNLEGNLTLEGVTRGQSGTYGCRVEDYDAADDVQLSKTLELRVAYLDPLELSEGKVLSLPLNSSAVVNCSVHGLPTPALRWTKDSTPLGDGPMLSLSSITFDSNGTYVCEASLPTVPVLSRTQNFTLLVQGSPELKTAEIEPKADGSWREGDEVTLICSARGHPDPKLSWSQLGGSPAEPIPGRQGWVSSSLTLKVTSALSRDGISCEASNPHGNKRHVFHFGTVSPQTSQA

T2: BCAM protein (antigenic protein coated in the ELISA) (UniProt P50895)
T2 sequence (looked up): T1 sequence (looked up)

T3: Human BCAM expressed on transfected HEK293FT cells (human) (UniProt P50895)
T3 sequence (looked up): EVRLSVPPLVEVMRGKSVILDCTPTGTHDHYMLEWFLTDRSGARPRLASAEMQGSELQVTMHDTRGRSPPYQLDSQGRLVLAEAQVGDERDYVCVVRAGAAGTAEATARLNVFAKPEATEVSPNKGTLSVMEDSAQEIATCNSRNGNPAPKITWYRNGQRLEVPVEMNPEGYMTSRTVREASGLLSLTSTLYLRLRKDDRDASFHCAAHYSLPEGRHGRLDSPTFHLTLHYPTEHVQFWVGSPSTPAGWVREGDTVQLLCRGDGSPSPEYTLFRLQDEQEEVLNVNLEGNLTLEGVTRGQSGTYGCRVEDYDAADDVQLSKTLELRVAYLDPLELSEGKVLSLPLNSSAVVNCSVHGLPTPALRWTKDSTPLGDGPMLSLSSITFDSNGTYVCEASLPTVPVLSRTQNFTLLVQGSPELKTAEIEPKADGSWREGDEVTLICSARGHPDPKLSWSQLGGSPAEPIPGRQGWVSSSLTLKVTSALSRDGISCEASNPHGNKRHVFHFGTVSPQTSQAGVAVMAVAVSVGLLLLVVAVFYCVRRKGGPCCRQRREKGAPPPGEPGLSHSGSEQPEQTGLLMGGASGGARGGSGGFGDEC

B1: anti-BCAM human IgG4 antibody 111a (antibody, V domains shown)
VH: QVTLKESGPGLVKPSGTLSLTCAVSGGSISSSNWWSWVRQPPGKGLEWIGEIYHSGSTNYNPSLKSRVTISVDKSKNQFSLKLSSVTAADTAVYYCARAYTVTTTYFDYWGQGTLVTVSS
VL: NIQMTQSPSTLSASVGDRVTITCRASQSMSTWLAWYQQKPGRAPKLLIYKASALETGVPSRFSGSGSGTQFTLTISSLQPDDFATYYCQQYDEFASFGQGTKVEIK
notes: Derived from a human scFv phage library; also called 11la
B2: anti-BCAM human IgG4 antibody 111b (antibody, V domains shown)
VH: EVQLVQSGAEVKKPGASVKVSCKASGYTFTSYYMHWVRQAPGQGLEWMGIINPSGGSTSYAQKFQGRVTMTRDTSTSTVYMELSSLRSEDTAVYYCARDGKGWDYYGSGSPLQYWGQGTLVTVSS
VL: LPVLTQPPSVSKGLRQTATLTCTGNSNNVGNQGAAWLQQHQGHPPKLLSYRNNDRPSGISERLSASRSGNTASLTITGLQPEDEADYYCSAWDSSLSAWVFGGGTKLTVL
B3: anti-BCAM human IgG4 antibody 111c (antibody, V domains shown)
VH: EVQLVQSGGGLVKPGGSLRLSCAASGFTFSDYYMSWIRQAPGKGLEWVSYTSSSGSTIYYADSVKGRFTISRDNAKNSLYLQMNSLRAEDTAVYYCARDITAFDIWGQGTMVTVSS
VL: LPVLTQPPSASGSPGQSVTISCTGTSSDVGGYNYVSWYQQHPGKAPKLMIYEVNKRPSGVPDRFSGSKSGNTASLTVSGLQAEDEADYYCCSYAGSNNYVFGTGTKVTVL

What follows are binders tested against T1, Human BCAM (amine-coupled to AR2G biosensors) (human) (assay: BLI (Octet QK)).
With B1 the binding was “binds”. B2 was tested, and the binding was “binds”. For B3, the binding was “binds”.

The binders below were run against T2, BCAM protein (antigenic protein coated in the ELISA) (assay: ELISA on coated BCAM protein).
For B1, the binding was “binds”. B2 was tested, and the binding was “binds”. In the case of B3, the binding is reported as “binds”.

Each binder was assayed against T1, Human BCAM (amine-coupled to AR2G biosensors) (human) (assay: BLI (Octet), human BCAM amine-coupled to AR2G biosensors, antibody in solution at serial dilutions).
For B1, the binding was “binds”. B2 was tested, and the binding was “binds”. For B3, the binding was “binds”.

Each binder was assayed against T3, Human BCAM expressed on transfected HEK293FT cells (human) (assay: flow cytometry on HEK293FT cells transfected with human BCAM, detected with AlexaFluor 647 goat anti-human IgG).
With B1 the binding was “binds”. For B2, the binding was “binds”. In the case of B3, the binding is reported as “binds”.
